Reference: paper PMC7819943, “Rice protein-binding microarrays: a tool to detect cis-acting elements near promoter regions in rice”
The list shows a part of the results.

target: T1, OsSMF1 (Oryza sativa, UniProt Q6ZLB0 1-436); test: protein-binding microarray (RPBM); PBS, 2% BSA, 51.3 ng/ul salmon testes DNA, 50 uM zinc acetate, 200 nM TF, 25 C, 1 h; high values mean tight binding; conditions: protein: recombinant; tags: N-terminal polyhistidine and DsRed monomer fusion (pET32a); chain copies: 2; label: CyDye5-dUTP incorporated in the synthesized complementary strand; 3' TTTTT single-stranded linker to array surface; dsDNA, one strand shown
T1 sequence: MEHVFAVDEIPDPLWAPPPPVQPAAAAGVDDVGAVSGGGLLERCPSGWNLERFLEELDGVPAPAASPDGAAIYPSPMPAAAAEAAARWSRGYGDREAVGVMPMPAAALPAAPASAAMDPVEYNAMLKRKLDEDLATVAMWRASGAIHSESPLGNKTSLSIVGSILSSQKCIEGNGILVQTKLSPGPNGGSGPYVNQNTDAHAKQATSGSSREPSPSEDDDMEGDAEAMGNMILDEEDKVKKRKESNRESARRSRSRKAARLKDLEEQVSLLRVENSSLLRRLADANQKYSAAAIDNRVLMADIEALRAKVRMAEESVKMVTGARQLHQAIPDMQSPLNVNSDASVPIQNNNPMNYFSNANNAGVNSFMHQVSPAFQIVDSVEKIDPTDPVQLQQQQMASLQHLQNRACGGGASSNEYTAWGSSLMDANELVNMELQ
How it was run: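 Binding signal is reported as fluorescence intensity per feature (arbitrary units) from an Axon 4000B scanner. Incubation used 200 nM of each Ni–NTA-purified, N-terminally polyhistidine- and DsRed-fused transcription factor from E. coli BL21-CodonPlus on a double-stranded custom Agilent array for 1 h at 25 °C, with 50 µM zinc acetate in the buffer, followed by washing.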

Sequence | binding signal
TCAATCCCAACAAAAGTTGTTTGAGCTGTGTATAAGGAGACGGAGTCACCTAGTGCAG | 34300 fluorescence intensity (a.u.)
GATAGGAAATGGCCTGGTCCATGTGGCACGGTGGTGAACACGGAGTCACCTAGTGCAG | 4320 fluorescence intensity (a.u.)
ACCCATGGACGCGCTCAAGCCCTGACCATGGCGTACGTACCGGAGTCACCTAGTGCAG | 3870 fluorescence intensity (a.u.)
TGGCTGTGGTGACTTAAAATCCACGTGTAACCACACCTGCCGGAGTCACCTAGTGCAG | 15700 fluorescence intensity (a.u.)
AACTTATGTAAAGATGTATATTGTTAAGTGAAAATATTGACGGAGTCACCTAGTGCAG | 3220 fluorescence intensity (a.u.)
AGCCATGAACATGTGGCATATAAACTACCTGATCGCTACACGGAGTCACCTAGTGCAG | 3820 fluorescence intensity (a.u.)
ATGTGTATGATGTGTTTGTTTATGTGTGGACTTTATAATACGGAGTCACCTAGTGCAG | 4020 fluorescence intensity (a.u.)
TTGCCGGTTTGTGCGGCAAGACGTGGCTTAACCTGTGCGTCGGAGTCACCTAGTGCAG | 3780 fluorescence intensity (a.u.)
ATCTAGACATGTATATATGTGTTTAGATTCATTAACATCTCGGAGTCACCTAGTGCAG | 6380 fluorescence intensity (a.u.)
TGCTCTGCGCGTTCTTGATGTTTGTCAGCAGCTACTTGCACGGAGTCACCTAGTGCAG | 3490 fluorescence intensity (a.u.)
TACTCCGGCTAACAAGTACAGTAGTAATAACCAATTGAACCGGAGTCACCTAGTGCAG | 3200 fluorescence intensity (a.u.)
CCTGCCCGGTGTGCTGTGACTTGCCGTTATCGTCACCGTTCGGAGTCACCTAGTGCAG | 6230 fluorescence intensity (a.u.)
GATCCTTTCAAGCTTCCTCGCCAAGTCAATCGAGATCATGCGGAGTCACCTAGTGCAG | 3700 fluorescence intensity (a.u.)
CCAGCCAAGGCAGCAACGTGACGATATCCACCTCGAAGATCGGAGTCACCTAGTGCAG | 3920 fluorescence intensity (a.u.)
AATTAAAGACTCCTCCTTGTTTGCGCACGCTCACTCGCGCCGGAGTCACCTAGTGCAG | 3230 fluorescence intensity (a.u.)
GGTACGCCAACGTCAGCACCGGCGATCTCCCGGCGAGCGTCGGAGTCACCTAGTGCAG | 6510 fluorescence intensity (a.u.)
CGTCGGTTTCTGATCGGAACAGGGCCGATCGAGAGTGCGACGGAGTCACCTAGTGCAG | 24600 fluorescence intensity (a.u.)
CATGTCGGCCGACCGTTGCGCCCGCCGTGCCGCTGCCACCCGGAGTCACCTAGTGCAG | 14800 fluorescence intensity (a.u.)
CCGCGCCGAGGGCTGTGACGTGTCGACCGAGCCAAGAACCCGGAGTCACCTAGTGCAG | 9000 fluorescence intensity (a.u.)
TGCGGGCTCCGCTGCTGAATATGACTCAAACAATTTTACTCGGAGTCACCTAGTGCAG | 3660 fluorescence intensity (a.u.)
TCTGCGTTCTACTTCGCTATGACGTAGAACCTTGTGCGTCCGGAGTCACCTAGTGCAG | 5280 fluorescence intensity (a.u.)

Sequence | binding signal
ATTCTCGATTTAACACTAATCATCATTATCCTAATAACCACGGAGTCACCTAGTGCAG | 3220 fluorescence intensity (a.u.)
TGTAAGCACCACGTTAATGCCACATCAGATAAAGACCAAGCGGAGTCACCTAGTGCAG | 10900 fluorescence intensity (a.u.)
GTATATGCGTCATGTGCGTCTTCCCTGTCACGAGTGCGTGCGGAGTCACCTAGTGCAG | 7200 fluorescence intensity (a.u.)
TAGAGAGTGGCATATAGGTTTACTTAAAAGCCATGGGATCCGGAGTCACCTAGTGCAG | 25500 fluorescence intensity (a.u.)
ATAACGGCCGCCACAACGACCCCGCGTCACCCTAGGGCATCGGAGTCACCTAGTGCAG | 6420 fluorescence intensity (a.u.)
CCTTAATCTCGTCATGGTGTCGATGTTTGCAACTATGTTCCGGAGTCACCTAGTGCAG | 3460 fluorescence intensity (a.u.)
TTCATGCTCATTCGCGTACCTATTGCCAACCGGACAATGTCGGAGTCACCTAGTGCAG | 3620 fluorescence intensity (a.u.)
AGGGTTCAACGAGTCACGCTCACGACAAACCTCTACTCTCCGGAGTCACCTAGTGCAG | 3400 fluorescence intensity (a.u.)
CCGCGCAGACTTTATACAGAGAGCCGTTGACACGGTGTCCCGGAGTCACCTAGTGCAG | 3660 fluorescence intensity (a.u.)
CCTGTCAATTCCAATTGCCAGCGCACGCTTTTCTTCTGGACGGAGTCACCTAGTGCAG | 4850 fluorescence intensity (a.u.)
GAGAGATGACGTTGAGTTGGAGTAAGCTGCCCTGGGGTCACGGAGTCACCTAGTGCAG | 3800 fluorescence intensity (a.u.)
ATGAATCCGATAAGCCCTATATGCTCTGAGAATGATCTACCGGAGTCACCTAGTGCAG | 3540 fluorescence intensity (a.u.)
ATGACGGCCTATGTATGCCTGAGTTTGGCTTGTTTGATAGCGGAGTCACCTAGTGCAG | 24700 fluorescence intensity (a.u.)
CTCTCATCGAAAAGTTTGGACCCAAGCTGCAAACGTGGCACGGAGTCACCTAGTGCAG | 8490 fluorescence intensity (a.u.)
AGAAGGTACGAAGTTCTATCTCTCTCTAGAATTCTATAGGCGGAGTCACCTAGTGCAG | 38100 fluorescence intensity (a.u.)
GCACAACATTAGAAATGCAAGTGGTCGACCCACGAACCCACGGAGTCACCTAGTGCAG | 3250 fluorescence intensity (a.u.)
AGGGCGAGGAGGCGCTTGAGGGCGTCGAGCTTGTCGGCATCGGAGTCACCTAGTGCAG | 28400 fluorescence intensity (a.u.)
GCACACGGCTCGCTCCCCGTTCCCCGTCACGCGGTCAACCCGGAGTCACCTAGTGCAG | 6150 fluorescence intensity (a.u.)
TGTTGAACCAATTAGTGCGTGTCACTATATCTAGAAGTTCCGGAGTCACCTAGTGCAG | 3930 fluorescence intensity (a.u.)
GCCATTATCACTGGCGGATTGGTGACGTGGGCCGTCAGTGCGGAGTCACCTAGTGCAG | 20800 fluorescence intensity (a.u.)
CTGAAGCTGCTTCCTGCCGTGCGTGTATAAGATGATCACCCGGAGTCACCTAGTGCAG | 3450 fluorescence intensity (a.u.)

A second format for some results above:

| Sequence | binding signal |
| --- | --- |
| GCACACGGCTCGCTCCCCGTTCCCCGTCACGCGGTCAACCCGGAGTCACCTAGTGCAG | 6150 fluorescence intensity (a.u.) |
| TGTTGAACCAATTAGTGCGTGTCACTATATCTAGAAGTTCCGGAGTCACCTAGTGCAG | 3930 fluorescence intensity (a.u.) |
